Results reported in publication PMC12752550.
These are yes or no findings as the source states them, for the method shown. Binding seen in cells or lysates may run through a third protein. Some results given as binding are weak or reduced against the parent protein; the word gives no strength.

Sequences of proteins named here, by UniProt entry; tags and fusion partners are left off. A change or cut given only in a name is not applied to a line headed by its entry. A line that says so, or that is headed by a name, gives the form on record, which may keep a tag or linker. Residues count along the entry.
UniProt O43791: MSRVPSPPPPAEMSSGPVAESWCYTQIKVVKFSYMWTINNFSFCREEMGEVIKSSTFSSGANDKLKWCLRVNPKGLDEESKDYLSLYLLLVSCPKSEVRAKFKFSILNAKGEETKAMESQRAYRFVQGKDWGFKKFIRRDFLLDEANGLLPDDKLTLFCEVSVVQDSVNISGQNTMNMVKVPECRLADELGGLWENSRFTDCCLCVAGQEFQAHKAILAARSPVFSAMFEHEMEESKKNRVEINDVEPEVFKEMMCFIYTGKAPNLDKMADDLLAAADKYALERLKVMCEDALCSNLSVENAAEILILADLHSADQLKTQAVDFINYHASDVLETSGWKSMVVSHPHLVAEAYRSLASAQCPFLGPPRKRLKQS
Flag-tagged N-terminal SPOP with a MATH domain (aa 1-170): residues 1-170 of O43791
Flag-tagged C-terminal SPOP with a BTB domain (aa 171-374): residues 171-374 of O43791
UniProt Q15672: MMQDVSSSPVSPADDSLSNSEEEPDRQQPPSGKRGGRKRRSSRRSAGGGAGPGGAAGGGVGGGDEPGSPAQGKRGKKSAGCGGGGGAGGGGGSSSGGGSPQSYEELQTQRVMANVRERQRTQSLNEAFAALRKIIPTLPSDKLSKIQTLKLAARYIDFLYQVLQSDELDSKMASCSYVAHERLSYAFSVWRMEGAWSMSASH

How the values were obtained:
[1] = target: Flag-tagged C-terminal SPOP with a BTB domain (aa 171-374) (UniProt O43791); assay: co-IP; anti-Flag co-IP from MCF-7 cells transfected with Flag-tagged full-length, N-terminal (aa 1-170) or C-terminal (aa 171-374) SPOP; Twist1 detected by western blotting
[2] = target: Flag-tagged N-terminal SPOP with a MATH domain (aa 1-170) (UniProt O43791); assay: as above
[3] = target: E3 ubiquitin ligase SPOP (human (endogenous in MCF-7)) (UniProt O43791); assay: co-IP; lysates of 1 × 10^7 MCF-7 cells, 5 µg of SPOP or Twist1 antibody overnight at 4 °C, Protein A/G magnetic beads 4 h at 4 °C, western blotting; endogenous proteins; also in cells transfected with the circLRBA overexpression plasmid (fewer Twist1 precipitated by anti-SPOP than in control cells)

binding [1]: no binding
binding [2]: binds
binding [3]: binds
Substance: Twist1 (from UniProt Q15672 1-202)
